Experimental data as given in paper PMC8164027.
Where a chain is given by its changes, count along the chain named. Numbers in names are those of the source. No constants are given. Whether binding was seen depends on the method and setting. In cells and extracts the contact can be indirect. Some entries that bind do so weakly or less than the wild type. Where a sequence is shown, tags or fusion partners need not be part of it.

T1: Myc-tagged Bcy1 (chromosomal BCY1 epitope tagged with nine Myc epitopes) (S. cerevisiae) (UniProt P07278)
T1 sequence: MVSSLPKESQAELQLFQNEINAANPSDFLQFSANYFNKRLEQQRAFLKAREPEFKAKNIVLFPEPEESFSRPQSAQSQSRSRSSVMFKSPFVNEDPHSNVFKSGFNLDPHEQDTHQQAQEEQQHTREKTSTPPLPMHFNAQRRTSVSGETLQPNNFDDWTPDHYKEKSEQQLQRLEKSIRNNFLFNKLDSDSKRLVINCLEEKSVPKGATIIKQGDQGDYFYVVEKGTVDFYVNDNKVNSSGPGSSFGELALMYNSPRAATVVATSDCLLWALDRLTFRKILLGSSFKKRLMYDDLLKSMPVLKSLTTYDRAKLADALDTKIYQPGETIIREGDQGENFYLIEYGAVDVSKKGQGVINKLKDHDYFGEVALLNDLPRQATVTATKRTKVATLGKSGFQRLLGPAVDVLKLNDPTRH

B1: untagged wild-type Tsa1 (enzyme, UniProt P34760 1-196)
chain: MVAQVQKQAPTFKKTAVVDGVFDEVSLDKYKGKYVVLAFIPLAFTFVCPTEIIAFSEAAKKFEEQGAQVLFASTDSEYSLLAWTNIPRKEGGLGPINIPLLADTNHSLSRDYGVLIEEEGVALRGLFIIDPKGVIRHITINDLPVGRNVDEALRLVEAFQWTDKNGTVLPCNWTPGAATIKPTVEDSKEYFEAANK
B2: untagged Tsa1 resolving cysteine residue mutant (Tsa1-C171S) (enzyme, UniProt P34760 1-196)
chain: B1 chain with C171S
B3: untagged Tsa1 peroxidatic cysteine residue mutant (Tsa1-C48S) (enzyme, UniProt P34760 1-196)
chain: B1 chain with C48S

Target: T1, Myc-tagged Bcy1 (chromosomal BCY1 epitope tagged with nine Myc epitopes) (S. cerevisiae)
Assay: co-IP; Bcy1-Myc precipitated with anti-c-Myc magnetic beads from a tsa1 deletion strain expressing untagged Tsa1 versions; lysis with 50 mM N-ethylmaleimide; wash buffer 500 mM NaCl, 20 mM Tris-HCl pH 8.0, 2 mM MgCl2, 0.5% NP40; Tsa1 detected with anti-Tsa1; non-stress, AZC (5 mM) or hydrogen peroxide (0.4 mM) for 2 h; also in a strain deleted for TPK1

binding, binds:
B1
B2
B3
